Results from publication PMC2363329, “Interaction of the PA2G4 (EBP1) protein with ErbB-3 and regulation of this binding by heregulin” (British Journal of Cancer, 2000).
Results are given in words; binding and its absence hold for the method and conditions named. Binding seen in cells or lysates may run through a third protein. A result given as binding can be weak or reduced; the word gives no strength.

By UniProt entry, the sequences of proteins in these tests, tags left out. Where a name states a change or a piece, a line headed by the entry shows the natural chain unless it says otherwise.
UniProt Q62799: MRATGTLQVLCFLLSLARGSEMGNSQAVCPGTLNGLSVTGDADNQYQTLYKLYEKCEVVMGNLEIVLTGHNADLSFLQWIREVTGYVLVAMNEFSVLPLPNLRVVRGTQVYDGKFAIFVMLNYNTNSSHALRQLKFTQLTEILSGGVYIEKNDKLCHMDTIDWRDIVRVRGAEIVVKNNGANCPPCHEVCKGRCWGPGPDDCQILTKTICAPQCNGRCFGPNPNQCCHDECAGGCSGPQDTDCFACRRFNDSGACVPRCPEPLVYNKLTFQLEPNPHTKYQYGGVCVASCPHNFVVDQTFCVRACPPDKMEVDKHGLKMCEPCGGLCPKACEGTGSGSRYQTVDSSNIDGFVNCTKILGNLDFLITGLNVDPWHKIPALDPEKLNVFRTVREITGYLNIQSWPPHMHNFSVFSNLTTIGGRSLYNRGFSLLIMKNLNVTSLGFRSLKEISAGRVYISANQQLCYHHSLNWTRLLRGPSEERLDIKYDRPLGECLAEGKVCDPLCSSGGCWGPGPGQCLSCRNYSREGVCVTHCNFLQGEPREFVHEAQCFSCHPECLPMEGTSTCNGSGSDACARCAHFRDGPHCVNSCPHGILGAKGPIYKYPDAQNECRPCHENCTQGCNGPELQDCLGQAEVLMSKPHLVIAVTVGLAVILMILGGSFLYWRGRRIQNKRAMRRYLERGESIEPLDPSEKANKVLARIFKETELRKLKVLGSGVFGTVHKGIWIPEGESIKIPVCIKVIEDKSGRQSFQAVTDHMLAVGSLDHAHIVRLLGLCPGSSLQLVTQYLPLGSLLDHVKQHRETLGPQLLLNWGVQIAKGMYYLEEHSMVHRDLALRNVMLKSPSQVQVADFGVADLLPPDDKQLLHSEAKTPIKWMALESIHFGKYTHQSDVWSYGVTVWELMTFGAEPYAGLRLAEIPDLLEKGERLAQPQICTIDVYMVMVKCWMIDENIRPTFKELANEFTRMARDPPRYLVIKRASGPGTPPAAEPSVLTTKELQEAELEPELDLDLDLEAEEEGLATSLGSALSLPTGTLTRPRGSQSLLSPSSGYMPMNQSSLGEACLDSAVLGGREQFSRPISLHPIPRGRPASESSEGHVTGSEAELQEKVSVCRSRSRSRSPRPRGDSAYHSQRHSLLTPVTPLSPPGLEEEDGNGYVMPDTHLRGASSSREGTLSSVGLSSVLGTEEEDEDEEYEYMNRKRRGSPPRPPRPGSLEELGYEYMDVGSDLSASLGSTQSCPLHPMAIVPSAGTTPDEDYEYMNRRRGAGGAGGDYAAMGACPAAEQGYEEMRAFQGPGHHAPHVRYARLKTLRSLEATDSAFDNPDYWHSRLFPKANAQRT

Biological target: Alanine scanning mutant A5 of GST/ErbB-3 (665-690) (rat) (UniProt Q62799)
Assay: pull-down; equal amounts of purified GST or GST-erbB3 fusion proteins incubated with in vitro translated 35S-labelled Ebp1 at 4C for 2 h; SDS-PAGE and autoradiography; only the target purified

B1: 35S-labelled in vitro translation product of pBK/Ebp1 (amino acids 1-373 of Ebp1) (domain or fragment, UniProt Q9UQ80 1-373)
chain: MSGEDEQQEQTIAEDLVVTKYKMGGDIANRVLRSLVEASSSGVSVLSLCEKGDAMIMEETGKIFKKEKEMKKGIAFPTSISVNNCVCHFSPLKSDQDYILKEGDLVKIDLGVHVDGFIANVAHTFVVDVAQGTQVTGRKADVIKAAHLCAEAALRLVKPGNQNTQVTEAWNKVAHSFNCTPIEGMLSHQLKQHVIDGEKTIIQNPTDQQKKDHEKAEFEVHEVYAVDVLVSSGEGKAKDAGQRTTIYKRDPSKQYGLKMKTSRAFFSEVERRFDAMPFTLRAFEDEKKARMGVVECAKHELLQPFNVLYEKEGEFVAQFKFTVLLMPNGPMRITSGPFEPDLYKSEMEVQDAELKALLQSSASRKTQKKKKKK
modifications: 35S-labelled
In the case of B1, the binding is reported as “binds”.
